About 760 (0.19%) of roughly 390,000 compounds were called active. Inconclusive means that the source gave no clear call. Such entries were picked first, then a sample of the others. The call rests on the fitted dose curve; in most records, active means well fitted inhibition curve with a large enough effect; inconclusive means small, poorly fitted or top-dose-only effect; inactive means flat fitted curve, though single readings scatter. Potencies of inconclusive entries are doubtful fits and often do not repeat.
Experiment: qHTS for Inhibitors of Vif-A3F Interactions: qHTS; further: nearly all actives have a fitted effect of over 65% in size
Details: HeLa A3F-eYFP + Vif (tagged APOBEC3F with the HIV-1 protein that degrades it), YFP fluorescence increase; series mostly up to 46.1 µM
Summary of the method: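 HeLa cells stably expressing A3F-eYFP plus Vif, plated and incubated overnight at 37 deg C, then exposed to compounds overnight at 37 deg C. Blocked degradation read as raised yellow fluorescence (Ex 488/Em 500-530).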
For C=CCn1cc(C=C2C(=O)NC(=O)NC2=O)c2ccccc21, the Potency was inconclusive: 2.51 µM [inhibitor, partial curve, poor fit].
In the case of COc1cc(-n2c(=S)[nH]c3ccc(C)cc3c2=O)c(Cl)cc1Cl, the Potency is reported as inconclusive: 12.6 µM [inhibitor, partial curve, poor fit].
With COc1cc(OC)c(OC)cc1/C=C(\C#N)C(=O)NCc1cccs1 the Potency was inconclusive: 15.8 µM [inhibitor, single point].
For CN1CC(C(=O)c2ccc(Cl)cc2)C(c2ccc(Cl)cc2Cl)C1 (configuration not stated), the Potency was inconclusive: 35.5 µM [inhibitor, single point].
With CN(C)c1ccc2c(c1)N=C(c1ccco1)OP2(=S)N1CCOCC1 (configuration not stated) the Potency was “inactive”.
For COc1ccc(OC)c(N=Cc2c(O)n(Cc3ccccc3)c(=S)[nH]c2=O)c1, the Potency was inconclusive: 31.6 µM [inhibitor, single point].
With Cc1ccc(S(=O)(=O)N2CCN(C(=O)COC(=O)Cc3ccccc3)CC2)c(C)c1 the Potency was inconclusive: 35.5 µM [inhibitor, single point].
In the case of Cc1c(C=O)c2ccccc2n1Cc1ccccc1, the Potency is reported as “inactive”.
In the case of Cc1ccc2cc(C=C(C#N)C#N)c(Cl)nc2c1, the Potency is reported as inconclusive: 17.8 µM [inhibitor, partial curve, poor fit].
For CSc1nc(N)c(N=Nc2ccc([As](=O)(O)O)cc2)c(=O)[nH]1, the Potency was inconclusive: 35.5 µM [inhibitor, single point].
With CC1=CC(=O)NP(=O)(Oc2ccc3ccccc3c2)N1 (configuration not stated) the Potency was “inactive”.
In the case of COC1CCC(OC2CC(C3(C)CCC4(CC(O)C(C)C(C(C)/C=C(\C)C(=O)C(C)CC(C)C(=O)O)O4)O3)OC3(OC(C4OC(O)(CO)C(C)CC4C)CC3C)C2C)OC1C (configuration not stated), the Potency is reported as “inactive”.
In the case of CNC(=O)Oc1ccc(-c2cn3cc(Cl)ccc3n2)cc1, the Potency is reported as “inactive”.
For O=C1NC(=O)N(c2ccc3c(c2)OCO3)C(=O)/C1=C/c1ccsc1, the Potency was “inactive”.
In the case of Nc1ccc2c(c1)Cc1cc([N+](=O)[O-])ccc1-2, the Potency is reported as active: 11.2 µM.
With CCCCCn1c(NC(=O)c2ccco2)c(C(=O)OCC)c2nc3ccccc3nc21 the Potency was inconclusive: 3.98 µM [inhibitor, single point].
With CC=C(C)C1(CCC)C(=O)NC(=S)NC1=O the Potency was inconclusive: 0.794 µM [inhibitor, full curve, poor fit].
With O=C(CCCN1CCC2(CC1)C(=O)NCN2c1ccccc1)c1ccc(F)cc1 the Potency was “inactive”.
With CC(C)C[C@H]1C(=O)N2CCC[C@H]2[C@]2(O)O[C@](NC(=O)[C@@H]3C=C4c5cccc6[nH]cc(c56)C[C@H]4N(C)C3)(C(C)C)C(=O)N12 the Potency was inconclusive: 17.8 µM [inhibitor, single point].
For COP(=O)(OC)C(NC(=O)c1ccc(C)cc1)C(Cl)(Cl)Cl (configuration not stated), the Potency was inconclusive: 5.62 µM [inhibitor, single point].
For Nc1nonc1C(=O)N/N=C/c1ccc([N+](=O)[O-])o1, the Potency was inconclusive: 3.55 µM [inhibitor, single point].
With COc1ccc(-n2c(O)c(/C=C/C=Nc3ccccc3)c(=O)[nH]c2=O)cc1 the Potency was inconclusive: 5.62 µM [inhibitor, single point].
In the case of Brc1ccc(-[n+]2c(-c3ccccc3)cc(-c3ccccc3)cc2-c2ccccc2)cc1, the Potency is reported as “inactive”.
For O=C1NC(=O)C(=Cc2ccc(N3CCOCC3)o2)C(=O)N1, the Potency was inconclusive: 12.6 µM [inhibitor, partial curve, poor fit].
For O=C(Cc1ccccc1)N1CCN(Cc2ccc(F)cc2)CC1, the Potency was inconclusive: 3.16 µM [inhibitor, partial curve, poor fit].
With CNC(=O)Oc1cccc2ccccc12 the Potency was “inactive”.
With COc1ccc2nc3c(C)n(C)ccc-3c2c1 the Potency was inconclusive: 22.4 µM [inhibitor, single point].
For Cc1ccc(CN2CCSc3ccc(C(=O)N4CCC5(CC4)OCCO5)cc32)cc1, the Potency was “inactive”.
With O=c1[nH]c(=O)n(CCc2ccc(F)cc2)c(O)c1/C=N/N1CCCCC1 the Potency was inconclusive: 15.8 µM [inhibitor, partial curve, poor fit].
In the case of COc1ccc(CCNCc2cc(OC)cc(OC)c2)cc1, the Potency is reported as “inactive”.
In the case of CCCCN(Cc1ccccc1)C1CCN(CCc2ccccc2)CC1, the Potency is reported as “inactive”.
With O=C(Nc1ccccc1)c1cccn(Cc2ccccc2)c1=O the Potency was inconclusive: 3.16 µM [inhibitor, partial curve, poor fit].
For CN(C(=O)CSc1nc2ccc(NC(=O)COc3ccccc3)cc2s1)c1ccccc1, the Potency was inconclusive: 35.5 µM [inhibitor, single point].
With CCOC(=O)C1(c2ccccc2)Oc2ccccc2C(c2ccc(OC)cc2)=C1C(=O)OC (configuration not stated) the Potency was inconclusive: 35.5 µM [inhibitor, single point].
In the case of Cc1ccc(/C=C2/C(=O)NC(=O)N(CCc3ccc(F)cc3)C2=O)s1, the Potency is reported as active: 8.91 µM.
In the case of CC(C)c1ccc(C(c2c(O)c3ccccc3oc2=O)c2c(O)c3ccccc3oc2=O)cc1, the Potency is reported as inconclusive: 35.5 µM [inhibitor, single point].
In the case of COCCNC(=O)c1c(NC(=O)c2ccco2)n(Cc2ccccc2)c2nc3ccccc3nc12, the Potency is reported as inconclusive: 22.4 µM [inhibitor, single point].
In the case of Cc1ccc(Cl)cc1NC(=O)Cn1c(=O)oc2cc(S(=O)(=O)N3CCCCCC3)ccc21, the Potency is reported as inconclusive: 15.8 µM [inhibitor, single point].
With CCCCN1C(=O)/C(=C/C=C/c2ccco2)C(=O)NC1=S the Potency was inconclusive: 22.4 µM [inhibitor, single point].
For CCN(CC)c1ccc(/C=C2/C(=O)NC(=O)N(Cc3ccco3)C2=O)cc1, the Potency was inconclusive: 35.5 µM [inhibitor, single point].
For CCn1cc(C=C2C(=O)NC(=O)NC2=O)c2ccccc21, the Potency was inconclusive: 28.2 µM [inhibitor, single point].
For C[N+]12CCC(CC1)C(=C(c1ccccc1)c1ccccc1)C2, the Potency was inconclusive: 6.31 µM [inhibitor, single point].
In the case of CN(C)c1ccc(/C=C/[N+](=O)[O-])cc1, the Potency is reported as inconclusive: 35.5 µM [inhibitor, partial curve, poor fit].
In the case of CCN(CC)c1ccc(N=Cc2c(O)n(-c3ccc(OC)cc3)c(=O)[nH]c2=O)cc1, the Potency is reported as inconclusive: 35.5 µM [inhibitor, single point].
With O=Cc1c(C(=O)O)n(Cc2ccc(Cl)cc2)c2ccccc12 the Potency was active: 10 µM.
In the case of Cc1cc(/C=C2/C(=O)NC(=O)N(c3ccc(Br)cc3)C2=O)c(C)n1C, the Potency is reported as inconclusive: 31.6 µM [inhibitor, single point].
For O=c1[nH]c(=O)n(-c2cccc(F)c2)c(O)c1/C=C1\C=Nc2ccccc21, the Potency was inconclusive: 35.5 µM [inhibitor, single point].
In the case of O=C1c2ccccc2-c2cc3ccccc3cc21, the Potency is reported as “inactive”.
With COC1C(C)OC(OC2CC(C)(O)Cc3cc4c(c(O)c32)C(=O)c2c(O)cc3c(c2C4=O)OC2OC3(C)C(O)C(N(C)C)C2O)C(OC)C1(C)OC (configuration not stated) the Potency was inconclusive: 15.8 µM [inhibitor, partial curve, poor fit].
In the case of CCn1c(O)c(C(=O)CC2NCCc3ccccc32)c(=O)n(CC)c1=S (configuration not stated), the Potency is reported as inconclusive: 35.5 µM [inhibitor, single point].
With COC(=O)C1=C(c2ccc(F)cc2F)C[C@@H]2CC[C@H]1N2C(=O)N1CCCC1 the Potency was “inactive”.
With COc1ccc2c(c1)NP(=S)(c1ccccc1)N2 (configuration not stated) the Potency was inconclusive: 0.562 µM [inhibitor, full curve, poor fit].
For Cc1cccc(N2C(=O)/C(=C/c3ccc(N4CCN(C)CC4)o3)C(=O)NC2=S)c1C, the Potency was inconclusive: 11.2 µM [inhibitor, partial curve, poor fit].
With O=c1[nH]c(=O)n(CCC2=CCCCC2)c(O)c1/C=N/N1CCOCC1 the Potency was “inactive”.
With COc1ccc(C(=O)Oc2cccc3cccnc23)cc1S(=O)(=O)N1CCOCC1 the Potency was inconclusive: 6.31 µM [inhibitor, single point].
With C=CCc1cc(C=C2C(=O)N(C)C(=O)N(C)C2=O)cc(OCC)c1OCc1ccccc1 the Potency was “inactive”.
For CCN(CC)c1ccc(C=C2C(=O)NC(=S)NC2=O)cc1, the Potency was inconclusive: 15.8 µM [inhibitor, partial curve, poor fit].
For CN1C(=O)/C(=C/c2ccc(Cl)s2)C(=O)NC1=S, the Potency was inconclusive: 10 µM [inhibitor, partial curve, poor fit].
With COc1ccccc1-n1c(/C=C/c2ccccc2)nc2ccccc2c1=O the Potency was “inactive”.
With CC(=O)NC(C)Cc1ccccc1 (configuration not stated) the Potency was inconclusive: 2.82 µM [inhibitor, single point].
With CC1CCCN(C(=O)CCl)C1 (configuration not stated) the Potency was “inactive”.
In the case of C=C1C(=O)OC2CC(C)C3C=CC(=O)C3(C)C(O)C12 (configuration not stated), the Potency is reported as inconclusive: 0.562 µM [inhibitor, partial curve, poor fit].
With CNCC(O)c1cc(OCc2ccccc2)c(OCc2ccccc2)cc1F (configuration not stated) the Potency was inconclusive: 35.5 µM [inhibitor, single point].
For COc1ccc(-n2c(/C=C/c3ccc(O)c(O)c3)nc3ccccc3c2=O)cc1, the Potency was inconclusive: 12.6 µM [inhibitor, partial curve, poor fit].
For COc1ccc(C)cc1NC(=O)c1c(C)nn(Cc2ccccc2)c1Cl, the Potency was “inactive”.
For C=CCN1C(=O)/C(=C/c2ccc(Br)s2)C(=O)NC1=S, the Potency was inconclusive: 11.2 µM [inhibitor, partial curve, poor fit].
With COc1cc2cc(C(=O)N3CC(COS(C)(=O)=O)c4ccc(O)cc43)[nH]c2c(OC)c1OC (configuration not stated) the Potency was inconclusive: 12.6 µM [inhibitor, partial curve, poor fit].
Potency means the concentration at half of the fitted maximal effect.
